# PMC7819943, “Rice protein-binding microarrays: a tool to detect cis-acting elements near promoter regions in rice”
# The other results are listed elsewhere or left out.
# Molecular target: T1, OsSMF1 (Oryza sativa, UniProt Q6ZLB0 1-436)
# T1 sequence: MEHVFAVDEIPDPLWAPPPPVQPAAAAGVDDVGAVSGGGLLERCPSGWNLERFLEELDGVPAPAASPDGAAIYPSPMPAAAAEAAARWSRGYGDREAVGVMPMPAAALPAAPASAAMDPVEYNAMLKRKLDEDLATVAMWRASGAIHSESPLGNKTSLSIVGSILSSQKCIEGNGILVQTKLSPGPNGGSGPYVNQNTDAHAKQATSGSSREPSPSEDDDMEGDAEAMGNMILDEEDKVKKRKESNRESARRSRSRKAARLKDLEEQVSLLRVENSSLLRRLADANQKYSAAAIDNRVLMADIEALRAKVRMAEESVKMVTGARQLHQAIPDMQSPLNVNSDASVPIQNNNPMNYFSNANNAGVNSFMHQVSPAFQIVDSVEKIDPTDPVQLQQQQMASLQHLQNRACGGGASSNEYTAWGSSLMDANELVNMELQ
# Experiment: protein-binding microarray (RPBM); PBS, 2% BSA, 51.3 ng/ul salmon testes DNA, 50 uM zinc acetate, 200 nM TF, 25 C, 1 h; high values mean tight binding
# Conditions: protein: recombinant; tags: N-terminal polyhistidine and DsRed monomer fusion (pET32a); chain copies: 2; label: CyDye5-dUTP incorporated in the synthesized complementary strand; 3' TTTTT single-stranded linker to array surface; dsDNA, one strand shown
# Summary of the method: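 Transcription factors, each fused N-terminally to a polyhistidine tag and DsRed, were expressed in E. coli BL21-CodonPlus and purified on Ni–NTA. A custom Agilent array was made double-stranded by primer extension with Cy5-dUTP and blocked with 2% BSA. It was incubated with 200 nM protein in PBS, 2% BSA, salmon testes DNA and 50 µM zinc acetate at 25 °C for 1 h, then washed. The binding signal is per-feature fluorescence intensity (arbitrary units) read on an Axon 4000B scanner.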
row,Sequence,binding signal
1,AAACAGCGGCTGCTGACGTCTCCGCAAACAATAGATCCGTCGGAGTCACCTAGTGCAG,8360 fluorescence intensity (a.u.)
2,GCTCTCGCGTCAGGGGCATACGTGTCCAAACTAAACCCCGCGGAGTCACCTAGTGCAG,14500 fluorescence intensity (a.u.)
3,TCGTACGCGGCCAGATCGTCGGCGGTCGGGGCGTCACCGTCGGAGTCACCTAGTGCAG,3210 fluorescence intensity (a.u.)
4,GAACATCATCATCCACGAAAATGTCGTCACATGCATACATCGGAGTCACCTAGTGCAG,4100 fluorescence intensity (a.u.)
5,GAACTCCTACGTCGTGGCCTCGCTGAATGGCTTAATGCCACGGAGTCACCTAGTGCAG,3340 fluorescence intensity (a.u.)
6,CTTGTGTCCTGATAATACGACTCCTCGTGCCATCCCAGGACGGAGTCACCTAGTGCAG,7900 fluorescence intensity (a.u.)
7,GCCCGAGCTCGACGACGGCAGCGGGGCGGTGGGGCGAGCTCGGAGTCACCTAGTGCAG,4040 fluorescence intensity (a.u.)
8,GCTGTCGTACTACTCCCTCCCGCTTCTCACGCCGTCAGCGCGGAGTCACCTAGTGCAG,4060 fluorescence intensity (a.u.)
9,AAACTGACTGGCCAGTCTCCAACTGGTGATACTCTGCTCTCGGAGTCACCTAGTGCAG,3550 fluorescence intensity (a.u.)
10,GTCGGCCCATGAATATGCTGACGTCACTTTTGAGCCCACTCGGAGTCACCTAGTGCAG,36600 fluorescence intensity (a.u.)
11,CTATTACTGTTAGAAATTAGAAATGTGCATGATTCTGAATCGGAGTCACCTAGTGCAG,22200 fluorescence intensity (a.u.)
12,CCCGCAAGTCCTCCTGGTTGATTTTGACACGCTGGCAGAGCGGAGTCACCTAGTGCAG,5940 fluorescence intensity (a.u.)
13,ATATGGATTTTACAAGTTTTAGGTACTTTCCTTTTATAATCGGAGTCACCTAGTGCAG,25700 fluorescence intensity (a.u.)
14,CCAATCCGCCAAACGGCACACGCACACACGCGCAAGAGGACGGAGTCACCTAGTGCAG,3280 fluorescence intensity (a.u.)
15,AATCCAGTGTCATTTGACTCATTTCCTCTTCCTGCCCTCGCGGAGTCACCTAGTGCAG,5660 fluorescence intensity (a.u.)
16,CCGACAGTGGACGACTTTGTGACGCCGCCGCTGTTTAGGGCGGAGTCACCTAGTGCAG,3610 fluorescence intensity (a.u.)
17,TTTTATCCTACGTGGCTGCTGAGTCAGCGTGGGACCCACACGGAGTCACCTAGTGCAG,25000 fluorescence intensity (a.u.)
18,GTACACCAAGTGTGGGAGCGTTGGCGACGCGGTGAGGCTGCGGAGTCACCTAGTGCAG,3290 fluorescence intensity (a.u.)
19,CATCCGTATTTTAATGTATGACACCGTTGACTTTTCGACTCGGAGTCACCTAGTGCAG,3790 fluorescence intensity (a.u.)
20,ATGATAGCAATATGTGTTGTGTCATACCATCTTTATTTTGCGGAGTCACCTAGTGCAG,4900 fluorescence intensity (a.u.)
21,AGATGTTACGTGACACATGGCGCACACATCTTCCAAATCGCGGAGTCACCTAGTGCAG,3160 fluorescence intensity (a.u.)

# Given as tab-separated lines: part of the list above.
row	Sequence	binding signal
10	GTCGGCCCATGAATATGCTGACGTCACTTTTGAGCCCACTCGGAGTCACCTAGTGCAG	36600 fluorescence intensity (a.u.)
11	CTATTACTGTTAGAAATTAGAAATGTGCATGATTCTGAATCGGAGTCACCTAGTGCAG	22200 fluorescence intensity (a.u.)
12	CCCGCAAGTCCTCCTGGTTGATTTTGACACGCTGGCAGAGCGGAGTCACCTAGTGCAG	5940 fluorescence intensity (a.u.)

# The list goes on:

row,Sequence,binding signal
1,TGTCCCCGCGCATCCGCGGACGTGGCTGGGCAACTGCTCGCGGAGTCACCTAGTGCAG,8030 fluorescence intensity (a.u.)
2,GTCAGCAATACCGCATTATGATAGAAGTGTAACATTCAACCGGAGTCACCTAGTGCAG,19600 fluorescence intensity (a.u.)
3,CCACAGCTCGCCGCCGTCCATGCTGCAGGTATGTATCATCCGGAGTCACCTAGTGCAG,3220 fluorescence intensity (a.u.)
4,ATGACTTTGGGCTTGGGCCATGACGCACTGCCTGCCTGCCCGGAGTCACCTAGTGCAG,5100 fluorescence intensity (a.u.)
5,CACTACTGTAATGGCCACGCCACCATCGCCACAGATCAATCGGAGTCACCTAGTGCAG,3750 fluorescence intensity (a.u.)
6,CCACGGAGACTAGACAGCCCATCCCCACATCAGCCAGCGACGGAGTCACCTAGTGCAG,3720 fluorescence intensity (a.u.)
7,GTTATAAGACGTTTTGATTTTAGTCAAAGTCAAACTATTCCGGAGTCACCTAGTGCAG,32600 fluorescence intensity (a.u.)
8,CCGCCGGCCCTTGCTGACGCTATCGATCGTGTCCTAACATCGGAGTCACCTAGTGCAG,4930 fluorescence intensity (a.u.)
9,ATATCCAAGTGACAGTGGTTGGTTTGCTGCGGACATGGCACGGAGTCACCTAGTGCAG,3410 fluorescence intensity (a.u.)
10,CCATCAGCCGACAACGTGTCATGTTCACGAGGGCGACTCGCGGAGTCACCTAGTGCAG,4890 fluorescence intensity (a.u.)
11,CGGAACGTCCGCGTCAGACTAGTGCAGTGCAGCCCGCAACCGGAGTCACCTAGTGCAG,5110 fluorescence intensity (a.u.)
12,TGCTCCACGGAGGCGCCAGCGTGGACAAGAGTAGTTTTACCGGAGTCACCTAGTGCAG,4190 fluorescence intensity (a.u.)
13,TAACTAATTAGTTAACTAATCGTCAATGTCACTAGCTTCTCGGAGTCACCTAGTGCAG,3490 fluorescence intensity (a.u.)
14,ATTCGGATTCCTCCAGCTACCGACACGCCGACACTTGTCACGGAGTCACCTAGTGCAG,3820 fluorescence intensity (a.u.)
15,AAACCACCCCACCTTGCATACTATGTTCATCCTCGTGTCACGGAGTCACCTAGTGCAG,4020 fluorescence intensity (a.u.)
16,TGTATACTTCTGTACCTGATTACACCTGTAAATCTTGAACCGGAGTCACCTAGTGCAG,3180 fluorescence intensity (a.u.)
17,GAGTGGGGAGAGGGAGATGACATGTGGGGCCCACGGGCCTCGGAGTCACCTAGTGCAG,5310 fluorescence intensity (a.u.)
18,AGCATCCGCCAGGTGTCCACCGTTTTACCGGCACCTGCCTCGGAGTCACCTAGTGCAG,4120 fluorescence intensity (a.u.)
19,CATTGAAAGATTCCTTTGCCATATGTTCATATACGTCGAACGGAGTCACCTAGTGCAG,26900 fluorescence intensity (a.u.)
20,AGGCGTGACGCTTGCGTGGCTGTGTGCTAGTGTACGTGTGCGGAGTCACCTAGTGCAG,11900 fluorescence intensity (a.u.)
21,TCGGGCCCGATCCCTCCTCGAGGGAGGGCCACGTGGCGCCCGGAGTCACCTAGTGCAG,20700 fluorescence intensity (a.u.)
